In all, about 1,100 compounds went through this assay and about 340 (31%) were called active. About 40% were inconclusive and are not listed. Calls come from the whole dose curve; as a rule, active = well fitted inhibition curve with a large enough effect; inconclusive = small, poorly fitted or top-dose-only effect; inactive = flat fitted curve, though single readings scatter. Only a part is listed here, and it is no random draw.
Each compound was assayed against Phosphatidylinositol 5-phosphate 4-kinase type-2 alpha (Homo sapiens) (UniProt P48426) (assay: qHTS for Inhibitors of PI5P4K: Confirmation in Primary Assay). Details: PI5P4Kalpha enzyme, ADP-Glo luminescence, 60 min; at 76.9 µM (top of the series).
From the text: In addition to finding PI5P, we discovered the type II phosphatidylinositol 5-phosphate 4-kinase (PI5P4K) family (alpha, beta, gamma isoforms) that catalyze the conversion of PI5P to PI(4,5)P2. Alternatively, PI(4,5)P2 can also be synthesized through phosphatidylinositol-4-phosphate (PI4P) by the type I phosphatidylinositol 4-phosphate 5-kinases (PI4P5K). These PI5P4K enzymes therefore represent one way by which cells can regulate endogenous PI5P levels and play important roles in insulin signaling and in stress responses. […] A qHTS PI5P4K-alpha ADP-Glo assay was developed to identify specific modulators of human PI5P4K, phosphatidylinositol-5-phosphate 4-kinase (Type II PIPK). This assay was screened against the MLSMR containing ~400,000 small molecules (PubChem AID 652105). […]
2 microL of PI5P4Kalpha/substrate buffer (columns 1-2, 5-48) are dispensed into Greiner white solid bottom 1536-well assay plates; column 3 receives only PI5P4Kalpha buffer as 0x substrate controls; column 4 receives only substrate buffer as 0x PI5P4Kalpha controls. […] They are then transferred to a ViewLux high-throughput CCD imager (PerkinElmer) wherein single end-point measurements of luminescence are acquired using a clear filter.
% is set by controls: 0 for no effect and ±100 for the full control effect.
Note: nearly all actives have a fitted effect of over 65% in size.

Amino acid sequences for entries named in this document (tags omitted).
UniProt P48426, whole entry: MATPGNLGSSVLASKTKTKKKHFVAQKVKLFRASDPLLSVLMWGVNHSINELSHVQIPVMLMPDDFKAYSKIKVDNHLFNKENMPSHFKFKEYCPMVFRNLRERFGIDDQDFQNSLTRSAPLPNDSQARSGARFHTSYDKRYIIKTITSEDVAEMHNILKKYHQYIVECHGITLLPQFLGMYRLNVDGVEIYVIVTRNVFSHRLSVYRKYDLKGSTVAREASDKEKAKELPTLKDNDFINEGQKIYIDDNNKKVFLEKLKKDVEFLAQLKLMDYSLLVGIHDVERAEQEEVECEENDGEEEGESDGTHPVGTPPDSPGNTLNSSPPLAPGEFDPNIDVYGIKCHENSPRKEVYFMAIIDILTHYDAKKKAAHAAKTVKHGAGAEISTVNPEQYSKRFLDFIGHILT

Row | Structure (SMILES) | activity change, negative = inhibition
1 | COc1ccc(C(c2nnnn2-c2ccc3c(c2)OCCO3)N2CCC(n3c(=O)[nH]c4ccccc43)CC2)cc1 (configuration not stated) | inactive: -5.25%
2 | CCCNC(=O)N1[C@H]2CC[C@@H]1C(C(=O)OC)=C(c1ccc(OC)c(OC)c1)C2 | inactive: -2.68%

Reference: PubChem BioAssay AID743286 (National Center for Advancing Translational Sciences (NCATS), 2014)
